For 42 sequences, binding signal results are on record in paper PMC7819943, “Rice protein-binding microarrays: a tool to detect cis-acting elements near promoter regions in rice”.

The chains behind the UniProt entries cited, without tags or fusion partners.
UniProt Q0JBA9, entry or part of it: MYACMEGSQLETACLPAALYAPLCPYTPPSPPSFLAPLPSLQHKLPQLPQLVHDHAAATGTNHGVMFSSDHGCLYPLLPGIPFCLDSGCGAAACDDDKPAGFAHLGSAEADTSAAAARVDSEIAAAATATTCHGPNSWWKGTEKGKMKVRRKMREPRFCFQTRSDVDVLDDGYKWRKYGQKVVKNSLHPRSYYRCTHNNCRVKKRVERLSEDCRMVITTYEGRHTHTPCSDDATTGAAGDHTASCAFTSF

This is one part of the list.

The assay has as its target OsWRKY34 (Oryza sativa, UniProt Q0JBA9 1-250). As to the kind of experiment: protein-binding microarray (RPBM); PBS, 2% BSA, 51.3 ng/ul salmon testes DNA, 50 uM zinc acetate, 200 nM TF, 25 C, 1 h; high values mean tight binding. The conditions noted are these: protein: recombinant; tags: N-terminal polyhistidine and DsRed monomer fusion (pET32a); label: CyDye5-dUTP incorporated in the synthesized complementary strand; 3' TTTTT single-stranded linker to array surface; dsDNA, one strand shown. In short, it runs like this: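 Per-feature fluorescence intensity (arbitrary units), read on an Axon 4000B scanner, is the binding signal. Transcription factors carrying an N-terminal polyhistidine tag and DsRed fusion were expressed in E. coli BL21-CodonPlus and purified on Ni–NTA. A custom Agilent array, made double-stranded by primer extension with Cy5-dUTP and blocked with 2% BSA, was incubated with 200 nM protein in PBS, 2% BSA, salmon testes DNA and 50 µM zinc acetate at 25 °C for 1 h and then washed.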
Take “GACTTCAATACTCAAGAGTACTAGTACTCGTGTTCTTTTTCGGAGTCACCTAGTGCAG”: the binding signal is 8280 fluorescence intensity (a.u.). To “GTTGTTTTCTTCCACGCGCTCTGCAACGCCACCGCTCCCCCGGAGTCACCTAGTGCAG” belongs 9540 fluorescence intensity (a.u.). For “TTACAATAACCATATAGCTTCATTTTCCTCTCGAGGCATGCGGAGTCACCTAGTGCAG”, the binding signal was 8120 fluorescence intensity (a.u.).

Turning to “AACATTTATTTCCATATCTTCATATATGGTTCCATATGAACGGAGTCACCTAGTGCAG”, the binding signal was 8400 fluorescence intensity (a.u.). To “TAAATTATTTTTGGTTGCTTGTTTATTTTTTCACGCTTATCGGAGTCACCTAGTGCAG” belongs 8680 fluorescence intensity (a.u.); to “AAAATTATTCATACGTTTGTTTAGCCACCAAGATTTGAATCGGAGTCACCTAGTGCAG”, 8040 fluorescence intensity (a.u.); to “ATGTAGACACTTATAAATCACATGTACACTTATCCTTATACGGAGTCACCTAGTGCAG”, 8380 fluorescence intensity (a.u.). To “CAAGTTTCACACTTTGCCGTTTTCCGACCATTATTGCCGTCGGAGTCACCTAGTGCAG” belongs 8700 fluorescence intensity (a.u.); to “GCTGGAGGTTCTGGGTCACTGCTTTGCTGCTGTTTGATGCCGGAGTCACCTAGTGCAG”, 8220 fluorescence intensity (a.u.); to “ATTCTCAGCGTCTCACACCTCCTGCGTTTCGTCTTTAATCCGGAGTCACCTAGTGCAG”, 15600 fluorescence intensity (a.u.). With “TTATTTACTTGCCACATCATTTTTCATCCTAGGTGGCAGCCGGAGTCACCTAGTGCAG”, the binding signal was 8260 fluorescence intensity (a.u.). For “GTAACTGTACATTTTATATAAGCATCTGCTATACCATGCACGGAGTCACCTAGTGCAG” the value was 8220 fluorescence intensity (a.u.). On to “GGTGGGGTTGGCAGCTTTCGTGCTTGGTCAACCGGGCATGCGGAGTCACCTAGTGCAG”, for which the binding signal was 8520 fluorescence intensity (a.u.). For “GGTGGTCGAAATATTCGATTTTGTGGTTTAGGGTAATGGACGGAGTCACCTAGTGCAG” the value was 10200 fluorescence intensity (a.u.); for “TGTCGGTGTCGGTGGGCGGGGATTCGCGGTAGTGGTGGAACGGAGTCACCTAGTGCAG”, 19700 fluorescence intensity (a.u.). With “CGCATGTGTAGTGGTGTGTGTGTTTATGCGTCTGCCGTGTCGGAGTCACCTAGTGCAG”, the binding signal is 9550 fluorescence intensity (a.u.). As for “AGTCACGTCCACTCATCCCTGTAAACATATACACACACCTCGGAGTCACCTAGTGCAG”, the binding signal is 9090 fluorescence intensity (a.u.). For the sequence “TATCGTGCTTCCATGTGCACAGATCGATCAAACTCGCATGCGGAGTCACCTAGTGCAG”, the binding signal was 9270 fluorescence intensity (a.u.). Turning to “AATCAACACAACACTACACTACACCCACCATCTCGGCGTCCGGAGTCACCTAGTGCAG”, the binding signal was 8870 fluorescence intensity (a.u.). For “TTTTCAGTTTAATAGCCAATTTTTTTTTTATATTCAATACCGGAGTCACCTAGTGCAG”, the binding signal is 8640 fluorescence intensity (a.u.). Consider “GATCATTTTTTCATCATTTTGCATCCCACTTTAAAAATAACGGAGTCACCTAGTGCAG”, for which the binding signal was 12300 fluorescence intensity (a.u.). Consider “CATCCGCGACAGGCTGCCTGCACGACCGACCGTTATCATCCGGAGTCACCTAGTGCAG”, for which the binding signal was 8390 fluorescence intensity (a.u.). For “CCCCAACACTTGTCCAGCCACCACCACTTGTTCTTTCCTTCGGAGTCACCTAGTGCAG” the value was 12200 fluorescence intensity (a.u.); for “TATTTTCCAGTTTAGCTTCAAAGCTCCATTTACTGCATCTCGGAGTCACCTAGTGCAG”, 8180 fluorescence intensity (a.u.); for “ATGAATTCGAGACACACTTTGACTTTTGGCTTTTGGCTTTCGGAGTCACCTAGTGCAG”, 10100 fluorescence intensity (a.u.).

Consider “TAATTTGGTCGTCTTCCTCCTCCTCACATCACATGCATCTCGGAGTCACCTAGTGCAG”, for which the binding signal is 8890 fluorescence intensity (a.u.). To “GCAGATGATTTTATCTCGATTTTTGTTAACACATTTTTCACGGAGTCACCTAGTGCAG” belongs 8390 fluorescence intensity (a.u.); to “TACATCCTAGCCATCCATCCTTCACATTTCATTTAATTCTCGGAGTCACCTAGTGCAG”, 9140 fluorescence intensity (a.u.); to “GCTAGCAAGTAGGCTCTCTCACTCCACACCCACACTACTCCGGAGTCACCTAGTGCAG”, 8030 fluorescence intensity (a.u.). To “ATTATTTATTCTTTTCATATCATTTGATTCATTGTTAAATCGGAGTCACCTAGTGCAG” belongs 8620 fluorescence intensity (a.u.); to “TTCTCCGTCCCAGCCACTGTATTCTCTATTTTCCATGAAGCGGAGTCACCTAGTGCAG”, 12200 fluorescence intensity (a.u.); to “TTCCTCAGCTTTGCTTCCGGCCGTCGCAATCGAGGATACTCGGAGTCACCTAGTGCAG”, 8480 fluorescence intensity (a.u.).

For the sequence “GACTAGATTAGGCCATCCAATATATTGTACTCATGTGATACGGAGTCACCTAGTGCAG”, the binding signal was 9170 fluorescence intensity (a.u.). “GAAATATTTGACACCGTTGACTTTTTAGCATATGTTTGACCGGAGTCACCTAGTGCAG”: the binding signal was 30700 fluorescence intensity (a.u.). To “GTTGCGTCTGGTTTTTCGGTTGAGGGTCGAAAATCGAATTCGGAGTCACCTAGTGCAG” belongs 8320 fluorescence intensity (a.u.); to “CGGTATAATGAGCATACACTTCACCTCTTATTTTCATCTCCGGAGTCACCTAGTGCAG”, 11200 fluorescence intensity (a.u.); to “ATTCTAGTCGTAGCCGATCTGGACTCCAGCCGATTCTTACCGGAGTCACCTAGTGCAG”, 9920 fluorescence intensity (a.u.). For “GGTTCTGCATTTCCACTGTGCAATTCGGCCATCCTTGATCCGGAGTCACCTAGTGCAG” the value was 8490 fluorescence intensity (a.u.); for “ACTCGAAACTACTGCCCCATCGTACTCACCACCTGCCCCTCGGAGTCACCTAGTGCAG”, 11600 fluorescence intensity (a.u.). In the case of “AGCCATCAGTCCATCACCATCTGCTAATCTCTCACATTCACGGAGTCACCTAGTGCAG”, the binding signal was 8660 fluorescence intensity (a.u.). To “GTGCTCCTTTCCTGTTACTACTCCCTCCGTCCCGGATTTTCGGAGTCACCTAGTGCAG” belongs 10500 fluorescence intensity (a.u.); to “ACACATGCACATCCACCATACCAAAGTACAATTACTGAACCGGAGTCACCTAGTGCAG”, 11600 fluorescence intensity (a.u.).
